Source: patent US20090143279A1 (priority 2007, published 2009)
Like-named read-outs stand apart in the source and are kept apart here. At least one read-out could not be matched to a standard name with certainty. Where a SMILES comes first, the peptide text is derived from it.

Columns and labels:
reactive oxygen species = assay type: cell-based, mouse
nuOXPHOS transcripts = assay type: cell-based, mouse
[1] = test system: cellular dehydrogenase activity
[2] = test system: mitochondrial membrane potential; assay type: cell-based, mouse
OXPHOS gene expression = assay type: cell-based, mouse
mtOXPHOS transcripts = assay type: cell-based, mouse
[3] = composite Z-score vs mock-treated (DMSO) wells, concentration of each compound in μM

Structure (SMILES) | ROS (reactive oxygen species; [3]) | nucOX (nuOXPHOS transcripts; [3]) | Viability (C2C12 myotubes; [3]) | MTT [1, 3] | ΔΨm [2, 3] | GE-HTS (OXPHOS gene expression; [3]) | mitoOX (mtOXPHOS transcripts; [3]) | ROS (reactive oxygen species) | nucOX (nuOXPHOS transcripts) | Viability (C2C12 myotubes) | MTT [1] | ΔΨm [2] | GE-HTS (OXPHOS gene expression) | mitoOX (mtOXPHOS transcripts) | other results
O=C1C=C2C=C[C@@H]3C[C@@]2(O1)[C@H]1CCCCN31 [securinine] | −1.553 | 0.370 | −1.075 | −0.269 | 0.949 | 0.346 | 0.201 | – | – | – | – | – | – | – | –
CCN(CC)CCOc1ccc(C(=C(Cl)c2ccccc2)c2ccccc2)cc1 [clomiphene] | – | – | – | – | – | – | – | 1.587 | 0.354 | −0.620 | −0.400 | −0.755 | 0.461 | 0.593 | ROS (composite Z-score vs DMSO mock-treated wells) (reactive oxygen species): 1.174; nucOX (composite Z-score, nuclear-encoded OXPHOS expression) (nuOXPHOS transcripts): −0.538; Viability (composite Z-score vs DMSO mock-treated wells) (C2C12 myotubes): 0.533; MTT (composite Z-score vs DMSO mock-treated wells) [1]: 0.169; ΔΨm (composite Z-score vs DMSO mock-treated wells) [2]: −0.381; GE-HTS (composite Z-score, OXPHOS gene expression) (OXPHOS gene expression): −0.767; mitoOX (composite Z-score, mtDNA-encoded OXPHOS expression) (mtOXPHOS transcripts): −1.009
O=C1C=CC(=O)c2c(O)cccc21 [juglone] | – | – | – | – | – | – | – | – | – | – | – | – | – | – | ROS (composite Z-score vs DMSO) (reactive oxygen species): 1.141; nucOX (composite Z-score vs DMSO) (nuOXPHOS transcripts): 0.116; Viability (composite Z-score vs DMSO) (C2C12 myotubes): −1.067; MTT (composite Z-score vs DMSO) [1]: −1.295; ΔΨm (composite Z-score vs DMSO) [2]: −1.636; GE-HTS (composite Z-score vs DMSO) (OXPHOS gene expression): 0.050; mitoOX (composite Z-score vs DMSO) (mtOXPHOS transcripts): −0.102
CCCC(C)C1(CC)C(=O)NC(=S)NC1=O (stereo not drawn) [thiopental] | – | – | – | – | – | – | – | – | – | – | – | – | – | – | ROS (composite Z-score vs DMSO) (reactive oxygen species): 0.356; nucOX (composite Z-score vs DMSO) (nuOXPHOS transcripts): 0.672; Viability (composite Z-score vs DMSO) (C2C12 myotubes): −0.167; MTT (composite Z-score vs DMSO) [1]: −1.043; ΔΨm (composite Z-score vs DMSO) [2]: −0.426; GE-HTS (composite Z-score vs DMSO) (OXPHOS gene expression): 0.646; mitoOX (composite Z-score vs DMSO) (mtOXPHOS transcripts): 0.427
C[C@]12CC[C@H](O)CC1=CC[C@@H]1[C@@H]2CC[C@]2(C)C(=O)CC[C@@H]12 [dehydroepiandrosterone] | 0.596 | −0.151 | −0.999 | −0.731 | −0.137 | −0.139 | −0.033 | – | – | – | – | – | – | – | –
C[N+]1(C)CCCC(OC(=O)C(O)(c2ccccc2)c2ccccc2)C1 (stereo not drawn) [mepenzolate] | – | – | – | – | – | – | – | 1.206 | −0.454 | −0.261 | −0.744 | −0.524 | −0.318 | 0.003 | –
O=C(NCC(O)CO)c1c(I)c(C(=O)NCC(O)CO)c(I)c(N(CCO)C(=O)CO)c1I (stereo not drawn) [ioversol] | – | – | – | – | – | – | – | 0.319 | 0.000 | −0.567 | −0.842 | −0.693 | 0.110 | 0.310 | –
CC(C)CCC[C@@H](C)[C@H]1CC[C@H]2[C@@H]3CC=C4CC(=O)CC[C@]4(C)[C@H]3CC[C@]12C [cholest-5-en-3-one] | – | – | – | – | – | – | – | 0.629 | 0.943 | 0.207 | −0.937 | −0.686 | 0.959 | 0.850 | –
COc1ccc2c3c1O[C@H]1[C@@H](O)CC=C4[C@@H](C2)N(C)CC[C@]431 [neopine] | – | – | – | – | – | – | – | 0.784 | −0.866 | −1.240 | −1.068 | −0.640 | −0.701 | −0.183 | –
NCC(CC(=O)O)c1ccc(Cl)s1 (stereo not drawn) [4-amino-3-(5-chlorothien-2-yl)butanoic acid] | 0.170 | 0.489 | 0.201 | −1.056 | −0.276 | 0.343 | 0.039 | – | – | – | – | – | – | – | –
C[C@H](CCC(=O)O)[C@H]1CC[C@H]2[C@@H]3[C@H](O)C[C@@H]4C[C@H](O)CC[C@]4(C)[C@H]3C[C@H](O)[C@]12C [cholic acid] | – | – | – | – | – | – | – | 0.950 | −0.272 | −1.325 | −1.806 | −0.579 | −0.250 | −0.115 | –
OCCN1CCN(CCCN2c3ccccc3Sc3ccc(C(F)(F)F)cc32)CC1 [fluphenazine] | – | – | – | – | – | – | – | – | – | – | – | – | – | – | ROS (composite Z-score vs DMSO mock-treated wells) (reactive oxygen species): 1.059; nucOX (composite Z-score, nuclear-encoded OXPHOS expression) (nuOXPHOS transcripts): 0.639; Viability (composite Z-score vs DMSO mock-treated wells) (C2C12 myotubes): 0.095; MTT (composite Z-score vs DMSO mock-treated wells) [1]: 0.102; ΔΨm (composite Z-score vs DMSO mock-treated wells) [2]: 1.160; GE-HTS (composite Z-score, OXPHOS gene expression) (OXPHOS gene expression): 0.802; mitoOX (composite Z-score, mtDNA-encoded OXPHOS expression) (mtOXPHOS transcripts): 0.989
Cc1nc2n(c(=O)c1CCN1CCC(c3noc4cc(F)ccc34)CC1)CCCC2 [risperidone] | – | – | – | – | – | – | – | – | – | – | – | – | – | – | ROS (composite Z-score vs DMSO) (reactive oxygen species): 1.159; nucOX (composite Z-score vs DMSO) (nuOXPHOS transcripts): 0.615; Viability (composite Z-score vs DMSO) (C2C12 myotubes): −1.004; MTT (composite Z-score vs DMSO) [1]: −0.267; ΔΨm (composite Z-score vs DMSO) [2]: 0.478; GE-HTS (composite Z-score vs DMSO) (OXPHOS gene expression): 0.887; mitoOX (composite Z-score vs DMSO) (mtOXPHOS transcripts): 1.266
CCc1cccc(CC)c1NC(=O)CN(CC(=O)O)CC(=O)O [etifenin] | 0.798 | −0.698 | 0.228 | −1.084 | −0.738 | −0.666 | −0.477 | – | – | – | – | – | – | – | –
CCOC(=O)[N-]c1cn(N2CCOCC2)n[o+]1 [molsidomine] | – | – | – | – | – | – | – | 1.246 | −0.168 | −0.281 | −1.312 | −0.968 | −0.253 | −0.366 | –
CC(C)[C@H](N)C(=O)N[C@@H](Cc1c[nH]c2ccccc12)C(=O)O [valyltryptophan] (H-Val-Trp-OH) | 0.388 | −0.551 | −1.481 | −0.468 | −0.438 | −0.534 | −0.381 | – | – | – | – | – | – | – | –
COc1ccc(CC2c3cc(OC)c(OC)cc3CC[N+]2(C)CCC(=O)OCCCCCOC(=O)CC[N+]2(C)CCc3cc(OC)c(OC)cc3C2Cc2ccc(OC)c(OC)c2)cc1OC (stereo not drawn) [atracurium] | 0.755 | 0.626 | 0.005 | −0.223 | 0.509 | 0.530 | 0.182 | – | – | – | – | – | – | – | –
O=c1ccc2ccc(O)cc2o1 [umbelliferone] | – | – | – | – | – | – | – | – | – | – | – | – | – | – | ROS (composite Z-score) (reactive oxygen species): 0.545; nucOX (composite Z-score) (nuOXPHOS transcripts): −0.661; Viability (composite Z-score) (C2C12 myotubes): 0.137; MTT (composite Z-score) [1]: −1.479; ΔΨm (composite Z-score) [2]: −1.303; GE-HTS (composite Z-score) (OXPHOS gene expression): −0.788; mitoOX (composite Z-score) (mtOXPHOS transcripts): −0.935
C[C@@H]1CC[C@H]2[C@@H](C)C(=O)O[C@@H]3O[C@@]4(C)CC[C@@H]1[C@]32OO4 [artemisinin] | – | – | – | – | – | – | – | 1.177 | 0.354 | 0.529 | −0.505 | −1.117 | 0.282 | 0.087 | –
NC1(C(=O)O)CC1 [aminocyclopropanecarboxylic acid] | – | – | – | – | – | – | – | – | – | – | – | – | – | – | ROS (composite Z-score vs DMSO) (reactive oxygen species): −0.055; nucOX (composite Z-score vs DMSO) (nuOXPHOS transcripts): −0.573; Viability (composite Z-score vs DMSO) (C2C12 myotubes): −0.938; MTT (composite Z-score vs DMSO) [1]: −1.980; ΔΨm (composite Z-score vs DMSO) [2]: −0.372; GE-HTS (composite Z-score vs DMSO) (OXPHOS gene expression): −0.566; mitoOX (composite Z-score vs DMSO) (mtOXPHOS transcripts): −0.433
N=C(N)NOCC[C@H](N)C(=O)O [canavanine] | 0.992 | −0.262 | −0.510 | −1.333 | −0.640 | −0.178 | 0.032 | – | – | – | – | – | – | – | –
CCc1ccc(CCOc2ccc(CC3SC(=O)NC3=O)cc2)nc1 (stereo not drawn) [pioglitazone] | 1.512 | 0.500 | 0.749 | −0.352 | −0.421 | 0.579 | 0.657 | – | – | – | – | – | – | – | –
CC[N+](CC)(CC)CCOc1cccc(OCC[N+](CC)(CC)CC)c1OCC[N+](CC)(CC)CC [gallamine] | – | – | – | – | – | – | – | 0.302 | 0.747 | 0.266 | −0.712 | −0.287 | 0.626 | 0.207 | –
COc1ccc(-c2cc(=O)c3c(OC)c(OC)c(OC)c(OC)c3o2)cc1OC [nobiletin] | – | – | – | – | – | – | – | 0.826 | 1.252 | 1.191 | −1.693 | 0.397 | 1.029 | 0.417 | –
COc1cc(OC)c2c(=O)c(-c3ccc4c(c3)OCO4)coc2c1 [derrustone] | 0.664 | −0.685 | −0.982 | −1.694 | −0.126 | −0.764 | −0.797 | – | – | – | – | – | – | – | –
NC1(C(=O)O)CCC1 [1-aminocyclobutane carboxylic acid] | – | – | – | – | – | – | – | 0.502 | −0.578 | −1.102 | −1.107 | −0.706 | −0.522 | −0.287 | –
CC(C)CC(N(C)C)C1(c2ccc(Cl)cc2)CCC1 (stereo not drawn) [sibutramine] | 0.451 | 0.846 | −1.609 | −1.556 | 0.798 | 0.804 | 0.583 | – | – | – | – | – | – | – | –
CC(C)N1CCN(c2ccc(OCC3COC(Cn4cncn4)(c4ccc(Cl)cc4Cl)O3)cc2)CC1 (stereo not drawn) [terconazole] | 1.691 | −0.870 | 0.751 | −3.209 | −0.196 | −1.032 | −1.158 | – | – | – | – | – | – | – | –
CO[C@H]1/C=C/O[C@@]2(C)Oc3c(C)c(O)c4c(O)c(c5c(nc6cc(C)ccn65)c4c3C2=O)NC(=O)/C(C)=C\C=C\[C@H](C)[C@H](O)[C@@H](C)[C@@H](O)[C@@H](C)[C@H](OC(C)=O)[C@@H]1C [rifaximin] | 1.073 | 0.282 | 1.755 | −0.813 | 0.910 | 0.411 | 0.541 | – | – | – | – | – | – | – | –
